The supplement of paper PMC7666118
The other results are listed elsewhere or left out.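 Rule for the calls: active = dose-dependent thermal stabilisation significant by F-test of dose-response against flat model at 10% FDR; inactive = not significant.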

Sequences of proteins named here, by UniProt entry; tags and fusion partners are left off. A change or cut given only in a name is not applied to a line headed by its entry.
UniProt Q6P1L5: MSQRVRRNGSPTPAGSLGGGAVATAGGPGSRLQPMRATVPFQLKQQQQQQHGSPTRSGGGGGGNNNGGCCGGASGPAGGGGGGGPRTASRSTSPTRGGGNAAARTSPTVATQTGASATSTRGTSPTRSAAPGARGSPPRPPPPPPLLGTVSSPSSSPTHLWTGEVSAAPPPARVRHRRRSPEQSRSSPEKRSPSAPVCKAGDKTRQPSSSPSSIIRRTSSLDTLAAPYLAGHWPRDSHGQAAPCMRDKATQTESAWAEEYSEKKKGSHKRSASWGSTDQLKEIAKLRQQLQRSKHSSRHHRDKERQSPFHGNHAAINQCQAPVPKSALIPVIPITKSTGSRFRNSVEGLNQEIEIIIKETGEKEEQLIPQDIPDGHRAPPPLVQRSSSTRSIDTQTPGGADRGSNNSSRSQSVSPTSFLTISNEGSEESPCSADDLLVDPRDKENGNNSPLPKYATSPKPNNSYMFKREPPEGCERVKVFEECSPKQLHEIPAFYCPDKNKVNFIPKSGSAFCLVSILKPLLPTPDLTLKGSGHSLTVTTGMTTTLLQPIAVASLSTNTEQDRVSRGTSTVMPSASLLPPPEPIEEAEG
UniProt Q9NUQ9: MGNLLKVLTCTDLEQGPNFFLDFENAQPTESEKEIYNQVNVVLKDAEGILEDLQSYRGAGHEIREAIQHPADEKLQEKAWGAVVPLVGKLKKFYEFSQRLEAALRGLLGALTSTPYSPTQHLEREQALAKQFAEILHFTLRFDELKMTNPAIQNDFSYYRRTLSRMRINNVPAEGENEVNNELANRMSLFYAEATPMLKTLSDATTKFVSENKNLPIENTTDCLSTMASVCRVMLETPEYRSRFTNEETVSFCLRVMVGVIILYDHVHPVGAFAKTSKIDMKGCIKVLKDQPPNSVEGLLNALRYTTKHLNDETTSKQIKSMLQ
UniProt Q9NYK6: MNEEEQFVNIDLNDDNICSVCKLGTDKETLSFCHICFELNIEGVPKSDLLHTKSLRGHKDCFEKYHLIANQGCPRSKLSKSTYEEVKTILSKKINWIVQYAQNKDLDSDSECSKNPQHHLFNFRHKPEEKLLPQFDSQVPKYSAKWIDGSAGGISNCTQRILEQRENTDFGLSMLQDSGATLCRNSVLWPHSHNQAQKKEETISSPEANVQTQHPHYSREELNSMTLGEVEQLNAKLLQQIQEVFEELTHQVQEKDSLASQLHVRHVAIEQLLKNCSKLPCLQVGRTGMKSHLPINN
UniProt Q96CD0: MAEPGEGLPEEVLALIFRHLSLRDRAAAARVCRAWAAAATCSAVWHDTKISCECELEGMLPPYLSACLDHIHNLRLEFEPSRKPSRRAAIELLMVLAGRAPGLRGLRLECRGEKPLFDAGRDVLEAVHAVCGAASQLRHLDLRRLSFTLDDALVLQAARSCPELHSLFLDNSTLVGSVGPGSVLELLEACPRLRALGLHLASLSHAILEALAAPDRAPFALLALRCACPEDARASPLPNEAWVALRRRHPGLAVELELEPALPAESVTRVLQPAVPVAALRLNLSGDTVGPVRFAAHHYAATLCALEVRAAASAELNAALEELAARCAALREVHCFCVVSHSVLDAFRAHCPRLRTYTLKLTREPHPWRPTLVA
UniProt Q12805: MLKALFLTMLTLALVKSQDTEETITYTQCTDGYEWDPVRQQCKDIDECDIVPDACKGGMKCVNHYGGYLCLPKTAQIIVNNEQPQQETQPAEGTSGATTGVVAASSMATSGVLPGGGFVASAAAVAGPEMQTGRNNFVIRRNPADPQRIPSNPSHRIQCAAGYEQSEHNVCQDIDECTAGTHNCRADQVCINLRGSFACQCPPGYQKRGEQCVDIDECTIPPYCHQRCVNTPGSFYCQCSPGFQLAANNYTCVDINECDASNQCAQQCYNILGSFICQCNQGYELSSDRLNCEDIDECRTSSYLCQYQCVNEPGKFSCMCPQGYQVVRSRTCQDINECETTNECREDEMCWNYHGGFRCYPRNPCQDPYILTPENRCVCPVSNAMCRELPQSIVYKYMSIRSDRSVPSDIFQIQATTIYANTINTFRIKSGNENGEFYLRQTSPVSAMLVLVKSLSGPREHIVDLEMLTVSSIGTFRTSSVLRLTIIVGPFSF
UniProt P09104, whole entry: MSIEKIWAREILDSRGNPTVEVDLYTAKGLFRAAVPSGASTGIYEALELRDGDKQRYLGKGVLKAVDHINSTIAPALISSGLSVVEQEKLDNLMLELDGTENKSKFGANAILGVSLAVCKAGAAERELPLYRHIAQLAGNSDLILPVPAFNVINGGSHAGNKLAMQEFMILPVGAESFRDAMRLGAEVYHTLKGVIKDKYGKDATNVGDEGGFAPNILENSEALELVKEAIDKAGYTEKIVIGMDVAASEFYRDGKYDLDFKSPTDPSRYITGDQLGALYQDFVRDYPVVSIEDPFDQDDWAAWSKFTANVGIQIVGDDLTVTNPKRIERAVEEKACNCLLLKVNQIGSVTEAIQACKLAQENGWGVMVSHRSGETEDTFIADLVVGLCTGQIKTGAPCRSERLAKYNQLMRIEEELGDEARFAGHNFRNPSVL
UniProt P05198, whole entry: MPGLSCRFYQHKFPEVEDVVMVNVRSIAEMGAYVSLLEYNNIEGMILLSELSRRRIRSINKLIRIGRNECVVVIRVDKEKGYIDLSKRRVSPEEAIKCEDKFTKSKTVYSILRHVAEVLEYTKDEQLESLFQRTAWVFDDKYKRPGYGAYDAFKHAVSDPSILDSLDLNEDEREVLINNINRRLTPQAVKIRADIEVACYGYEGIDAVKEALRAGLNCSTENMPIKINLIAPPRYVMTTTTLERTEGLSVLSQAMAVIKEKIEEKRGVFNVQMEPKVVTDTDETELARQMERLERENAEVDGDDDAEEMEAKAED
UniProt Q96SL8: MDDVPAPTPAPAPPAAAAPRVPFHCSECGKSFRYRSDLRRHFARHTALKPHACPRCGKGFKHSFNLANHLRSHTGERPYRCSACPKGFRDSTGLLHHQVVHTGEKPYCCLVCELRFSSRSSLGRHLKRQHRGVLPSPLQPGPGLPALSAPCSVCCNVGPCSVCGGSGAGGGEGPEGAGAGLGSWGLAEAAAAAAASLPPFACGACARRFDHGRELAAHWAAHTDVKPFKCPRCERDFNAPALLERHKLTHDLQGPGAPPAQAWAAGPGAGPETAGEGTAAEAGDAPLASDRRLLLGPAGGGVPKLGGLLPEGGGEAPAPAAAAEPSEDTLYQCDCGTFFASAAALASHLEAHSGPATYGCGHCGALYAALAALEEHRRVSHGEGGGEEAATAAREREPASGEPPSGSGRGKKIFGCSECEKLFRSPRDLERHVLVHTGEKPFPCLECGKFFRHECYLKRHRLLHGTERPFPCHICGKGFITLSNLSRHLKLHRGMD
UniProt Q01469, whole entry: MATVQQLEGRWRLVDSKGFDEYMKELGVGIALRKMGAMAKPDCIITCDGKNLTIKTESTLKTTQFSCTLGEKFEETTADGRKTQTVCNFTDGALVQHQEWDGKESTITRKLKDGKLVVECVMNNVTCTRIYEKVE
UniProt P41091, whole entry: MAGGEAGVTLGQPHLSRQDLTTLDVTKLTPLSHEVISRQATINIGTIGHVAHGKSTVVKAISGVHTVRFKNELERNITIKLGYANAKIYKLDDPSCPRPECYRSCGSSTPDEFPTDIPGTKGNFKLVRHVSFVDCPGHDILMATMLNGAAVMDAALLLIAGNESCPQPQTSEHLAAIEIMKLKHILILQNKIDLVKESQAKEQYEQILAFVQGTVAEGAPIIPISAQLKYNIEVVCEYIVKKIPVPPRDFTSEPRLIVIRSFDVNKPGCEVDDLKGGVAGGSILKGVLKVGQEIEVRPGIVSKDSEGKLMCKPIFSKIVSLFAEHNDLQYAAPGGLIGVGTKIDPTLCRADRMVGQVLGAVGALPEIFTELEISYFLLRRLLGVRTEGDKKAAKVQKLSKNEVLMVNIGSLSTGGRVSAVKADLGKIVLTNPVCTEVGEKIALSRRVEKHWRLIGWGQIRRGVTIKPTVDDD
UniProt P41567, whole entry: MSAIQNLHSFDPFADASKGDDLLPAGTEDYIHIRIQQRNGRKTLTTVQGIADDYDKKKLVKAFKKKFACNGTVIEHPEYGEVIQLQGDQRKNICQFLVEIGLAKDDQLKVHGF
UniProt P62942, whole entry: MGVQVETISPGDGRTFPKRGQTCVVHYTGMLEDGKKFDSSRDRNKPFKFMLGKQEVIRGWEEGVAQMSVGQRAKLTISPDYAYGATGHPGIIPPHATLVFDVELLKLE
UniProt Q96TA1: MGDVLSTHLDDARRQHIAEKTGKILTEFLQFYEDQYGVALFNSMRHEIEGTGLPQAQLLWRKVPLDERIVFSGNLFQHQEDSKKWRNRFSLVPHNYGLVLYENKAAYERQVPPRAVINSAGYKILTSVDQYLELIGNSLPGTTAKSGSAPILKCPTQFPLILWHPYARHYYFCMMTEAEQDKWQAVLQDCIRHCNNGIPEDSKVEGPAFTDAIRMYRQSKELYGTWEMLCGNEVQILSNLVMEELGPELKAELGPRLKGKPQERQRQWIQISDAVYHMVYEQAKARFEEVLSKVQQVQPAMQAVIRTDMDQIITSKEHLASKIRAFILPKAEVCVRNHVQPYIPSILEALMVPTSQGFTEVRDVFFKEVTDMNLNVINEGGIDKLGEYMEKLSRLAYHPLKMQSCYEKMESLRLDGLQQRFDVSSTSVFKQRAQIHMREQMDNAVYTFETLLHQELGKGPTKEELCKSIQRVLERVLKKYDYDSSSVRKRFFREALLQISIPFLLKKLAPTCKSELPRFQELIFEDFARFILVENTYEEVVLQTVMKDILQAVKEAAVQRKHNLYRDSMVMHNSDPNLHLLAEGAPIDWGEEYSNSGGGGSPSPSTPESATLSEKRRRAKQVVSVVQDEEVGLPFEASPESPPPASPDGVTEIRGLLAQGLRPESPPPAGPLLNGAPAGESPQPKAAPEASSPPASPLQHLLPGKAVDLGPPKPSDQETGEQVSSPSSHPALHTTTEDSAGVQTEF
UniProt Q658Y4: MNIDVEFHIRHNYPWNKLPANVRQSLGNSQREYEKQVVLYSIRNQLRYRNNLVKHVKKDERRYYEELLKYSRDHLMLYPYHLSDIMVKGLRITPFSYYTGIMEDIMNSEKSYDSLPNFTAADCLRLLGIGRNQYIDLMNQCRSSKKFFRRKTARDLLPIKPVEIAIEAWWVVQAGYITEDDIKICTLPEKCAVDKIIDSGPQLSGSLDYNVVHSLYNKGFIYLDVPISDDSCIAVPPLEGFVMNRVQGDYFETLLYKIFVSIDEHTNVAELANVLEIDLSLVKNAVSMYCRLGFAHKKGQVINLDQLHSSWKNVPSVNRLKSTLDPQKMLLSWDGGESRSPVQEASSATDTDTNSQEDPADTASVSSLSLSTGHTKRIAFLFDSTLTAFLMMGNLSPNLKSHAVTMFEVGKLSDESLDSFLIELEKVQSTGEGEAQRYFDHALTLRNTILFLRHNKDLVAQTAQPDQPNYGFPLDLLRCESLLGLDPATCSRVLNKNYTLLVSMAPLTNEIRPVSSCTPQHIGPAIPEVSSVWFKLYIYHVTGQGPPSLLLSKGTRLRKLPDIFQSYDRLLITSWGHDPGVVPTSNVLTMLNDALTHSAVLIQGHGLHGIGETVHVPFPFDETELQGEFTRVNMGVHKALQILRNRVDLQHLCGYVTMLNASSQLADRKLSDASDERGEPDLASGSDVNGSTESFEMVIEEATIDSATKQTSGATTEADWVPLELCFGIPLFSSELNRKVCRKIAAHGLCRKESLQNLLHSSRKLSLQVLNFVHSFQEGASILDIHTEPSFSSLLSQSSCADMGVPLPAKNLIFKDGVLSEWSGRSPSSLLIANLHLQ
UniProt P16930: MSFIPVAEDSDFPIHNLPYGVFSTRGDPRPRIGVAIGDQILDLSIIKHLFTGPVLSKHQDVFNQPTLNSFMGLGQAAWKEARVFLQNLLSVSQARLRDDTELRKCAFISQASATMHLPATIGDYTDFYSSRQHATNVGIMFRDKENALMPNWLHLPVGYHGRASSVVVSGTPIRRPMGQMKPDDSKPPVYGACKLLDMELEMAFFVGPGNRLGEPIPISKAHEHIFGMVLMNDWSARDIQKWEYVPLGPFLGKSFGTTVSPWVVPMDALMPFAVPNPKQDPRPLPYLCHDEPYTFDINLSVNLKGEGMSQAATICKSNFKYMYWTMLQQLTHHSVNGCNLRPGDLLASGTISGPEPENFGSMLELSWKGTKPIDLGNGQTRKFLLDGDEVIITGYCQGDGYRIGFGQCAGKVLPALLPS

Compound: Nc1nc2c(ncn2[C@@H]2O[C@H](COP(=O)(O)OP(=O)(O)OP(=O)(O)O)[C@@H](O)[C@H]2O)c(=O)[nH]1
Assay: dose-dependent thermal stabilisation call (2D-TPP, DLPTP, 10% FDR) (binary (1 = stabilised)); higher = stabilised by the compound
Settings: system: Jurkat gel-filtered lysate; concentration range 1-500 µM

Target | dose-dependent thermal stabilisation call
FBXL18 (UniProt Q96ME1) | inactive: 0
FNBP4 (UniProt Q8N3X1) | inactive: 0
FAM117B (UniProt Q6P1L5) | inactive: 0
FAM49B (UniProt Q9NUQ9) | inactive: 0
EURL (UniProt Q9NYK6) | inactive: 0
FSD1L (UniProt Q9BXM9) | inactive: 0
FAM32A (UniProt Q9Y421) | inactive: 0
FBXL8 (UniProt Q96CD0) | inactive: 0
EFEMP1 (UniProt Q12805) | inactive: 0
ERCC2 (UniProt P18074) | active: 1
ENO2 (UniProt P09104) | inactive: 0
ELF1 (UniProt P32519) | inactive: 0
FAM76B (UniProt Q5HYJ3) | inactive: 0
EIF4ENIF1 (UniProt Q9NRA8) | inactive: 0
EIF2S1 (UniProt P05198) | active: 1
FNTB (UniProt P49356) | inactive: 0
EIF4B (UniProt P23588) | inactive: 0
FIZ1 (UniProt Q96SL8) | inactive: 0

Reformatted in markdown: part of the list above.

| Target | dose-dependent thermal stabilisation call |
| --- | --- |
| FAM117B (UniProt Q6P1L5) | inactive: 0 |
| FAM32A (UniProt Q9Y421) | inactive: 0 |

Next part:

Target | dose-dependent thermal stabilisation call
FAM107B (UniProt Q9H098) | inactive: 0
FKBP5 (UniProt Q13451) | inactive: 0
FAM213B (UniProt Q8TBF2) | inactive: 0
ELF2 (UniProt Q15723) | inactive: 0
FABP5 (UniProt Q01469) | inactive: 0
EIF2S3 (UniProt P41091) | inactive: 0
FKBP2 (UniProt P26885) | inactive: 0
EXOC8 (UniProt Q8IYI6) | inactive: 0
EIF1 (UniProt P41567) | inactive: 0
FKBP1A (UniProt P62942) | inactive: 0
FAM129B (UniProt Q96TA1) | active: 1
FNBP1L (UniProt Q5T0N5) | inactive: 0
FAM120B (UniProt Q96EK7) | active: 1
FAM91A1 (UniProt Q658Y4) | inactive: 0
FXR1 (UniProt P51114) | active: 1
FAH (UniProt P16930) | inactive: 0
ELOC (UniProt Q15369) | inactive: 0
EIF5 (UniProt P55010) | inactive: 0
